Results are given in words; binding and its absence hold for the method and conditions named. In cells and extracts the contact can be indirect.
What was measured:
Assay in all cases: co-IP; HEK293T cells co-transfected with both partners; lysis in 0.5% Triton X-100, 20 mM Tris-HCl pH 7.5, 150 mM NaCl, 10% glycerol, 1 mM EDTA; anti-Flag agarose or anti-HA magnetic beads 4 h at 4°C; washes with 300 mM NaCl; immunoblotting
IKKα = target: T1, IKKα (UniProt O15111)
T1 sequence: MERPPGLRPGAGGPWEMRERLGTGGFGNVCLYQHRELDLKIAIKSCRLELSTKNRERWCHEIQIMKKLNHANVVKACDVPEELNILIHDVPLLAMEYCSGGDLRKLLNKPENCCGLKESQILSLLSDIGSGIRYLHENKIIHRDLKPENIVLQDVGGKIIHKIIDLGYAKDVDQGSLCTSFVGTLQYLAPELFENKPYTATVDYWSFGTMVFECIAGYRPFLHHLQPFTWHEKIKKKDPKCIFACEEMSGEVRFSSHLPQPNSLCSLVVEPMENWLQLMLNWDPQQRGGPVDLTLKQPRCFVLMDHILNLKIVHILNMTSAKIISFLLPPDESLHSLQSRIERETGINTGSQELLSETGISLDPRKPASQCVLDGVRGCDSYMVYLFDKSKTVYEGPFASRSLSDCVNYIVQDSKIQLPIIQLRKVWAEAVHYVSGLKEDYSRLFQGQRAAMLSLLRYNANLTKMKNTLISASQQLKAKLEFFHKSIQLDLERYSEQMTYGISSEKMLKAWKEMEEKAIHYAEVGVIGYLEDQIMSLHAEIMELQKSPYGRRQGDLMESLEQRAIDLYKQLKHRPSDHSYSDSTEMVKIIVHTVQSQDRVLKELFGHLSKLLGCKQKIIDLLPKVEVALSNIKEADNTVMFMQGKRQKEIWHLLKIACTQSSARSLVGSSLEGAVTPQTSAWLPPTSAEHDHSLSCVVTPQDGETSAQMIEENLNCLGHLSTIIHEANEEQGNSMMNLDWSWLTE

Amino acid sequences for entries named in this document (tags omitted).
UniProt P51617: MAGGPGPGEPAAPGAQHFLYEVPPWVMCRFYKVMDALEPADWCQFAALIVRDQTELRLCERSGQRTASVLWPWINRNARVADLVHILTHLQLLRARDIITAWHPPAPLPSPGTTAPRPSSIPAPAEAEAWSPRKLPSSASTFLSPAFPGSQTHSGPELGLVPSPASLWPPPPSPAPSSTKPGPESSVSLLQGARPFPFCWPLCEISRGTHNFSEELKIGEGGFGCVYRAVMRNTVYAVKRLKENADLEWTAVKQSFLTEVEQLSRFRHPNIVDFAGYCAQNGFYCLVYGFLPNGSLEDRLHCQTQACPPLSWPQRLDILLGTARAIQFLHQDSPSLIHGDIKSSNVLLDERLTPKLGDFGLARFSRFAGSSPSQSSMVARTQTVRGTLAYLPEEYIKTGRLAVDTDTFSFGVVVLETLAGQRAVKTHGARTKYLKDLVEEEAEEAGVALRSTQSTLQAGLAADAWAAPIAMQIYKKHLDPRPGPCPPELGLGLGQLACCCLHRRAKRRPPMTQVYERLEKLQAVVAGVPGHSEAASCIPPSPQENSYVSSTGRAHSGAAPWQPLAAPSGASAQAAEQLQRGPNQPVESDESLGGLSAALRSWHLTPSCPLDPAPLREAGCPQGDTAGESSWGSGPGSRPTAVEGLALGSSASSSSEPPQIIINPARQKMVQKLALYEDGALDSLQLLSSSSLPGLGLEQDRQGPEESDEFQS
UniProt Q04206: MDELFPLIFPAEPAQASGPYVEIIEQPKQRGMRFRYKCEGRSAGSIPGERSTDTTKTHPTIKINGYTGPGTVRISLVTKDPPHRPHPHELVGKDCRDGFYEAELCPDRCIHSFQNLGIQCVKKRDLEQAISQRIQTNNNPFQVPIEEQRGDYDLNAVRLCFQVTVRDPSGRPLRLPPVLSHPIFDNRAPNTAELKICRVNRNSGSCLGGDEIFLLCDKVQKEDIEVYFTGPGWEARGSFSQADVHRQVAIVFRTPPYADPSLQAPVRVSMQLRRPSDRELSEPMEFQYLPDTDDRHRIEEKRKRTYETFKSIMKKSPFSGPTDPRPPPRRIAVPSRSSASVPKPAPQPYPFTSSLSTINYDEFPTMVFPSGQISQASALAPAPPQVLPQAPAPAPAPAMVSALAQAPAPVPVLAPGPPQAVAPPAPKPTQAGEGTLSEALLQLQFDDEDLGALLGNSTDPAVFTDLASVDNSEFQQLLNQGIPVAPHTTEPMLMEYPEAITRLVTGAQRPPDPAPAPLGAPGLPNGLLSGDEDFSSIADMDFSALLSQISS

IKKβ = target: T2, IKKβ (UniProt O14920)
T2 sequence: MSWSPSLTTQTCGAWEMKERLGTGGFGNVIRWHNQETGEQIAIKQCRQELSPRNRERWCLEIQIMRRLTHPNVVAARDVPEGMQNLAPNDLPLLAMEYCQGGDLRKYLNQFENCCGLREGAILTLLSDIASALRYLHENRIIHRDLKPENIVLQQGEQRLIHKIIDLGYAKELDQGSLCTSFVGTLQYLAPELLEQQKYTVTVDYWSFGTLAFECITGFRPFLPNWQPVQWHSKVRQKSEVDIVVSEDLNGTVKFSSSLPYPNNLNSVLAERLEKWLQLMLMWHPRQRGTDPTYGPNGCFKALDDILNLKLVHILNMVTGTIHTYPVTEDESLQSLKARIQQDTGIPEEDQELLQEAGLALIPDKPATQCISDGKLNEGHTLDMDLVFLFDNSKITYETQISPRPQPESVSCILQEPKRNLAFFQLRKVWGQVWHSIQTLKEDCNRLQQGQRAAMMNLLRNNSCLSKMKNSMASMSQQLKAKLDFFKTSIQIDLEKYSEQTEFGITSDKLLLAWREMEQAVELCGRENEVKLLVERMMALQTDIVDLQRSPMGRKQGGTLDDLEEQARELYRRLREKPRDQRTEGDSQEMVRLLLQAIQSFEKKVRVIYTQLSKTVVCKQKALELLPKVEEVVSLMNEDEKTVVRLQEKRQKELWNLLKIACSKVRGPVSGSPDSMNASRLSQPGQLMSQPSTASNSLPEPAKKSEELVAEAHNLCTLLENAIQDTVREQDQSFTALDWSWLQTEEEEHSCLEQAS

IRAK1 (overexpressed) = IRAK1 (overexpressed) (UniProt P51617)
TAB1 = target: T3, TAB1 (UniProt Q15750)
T3 sequence: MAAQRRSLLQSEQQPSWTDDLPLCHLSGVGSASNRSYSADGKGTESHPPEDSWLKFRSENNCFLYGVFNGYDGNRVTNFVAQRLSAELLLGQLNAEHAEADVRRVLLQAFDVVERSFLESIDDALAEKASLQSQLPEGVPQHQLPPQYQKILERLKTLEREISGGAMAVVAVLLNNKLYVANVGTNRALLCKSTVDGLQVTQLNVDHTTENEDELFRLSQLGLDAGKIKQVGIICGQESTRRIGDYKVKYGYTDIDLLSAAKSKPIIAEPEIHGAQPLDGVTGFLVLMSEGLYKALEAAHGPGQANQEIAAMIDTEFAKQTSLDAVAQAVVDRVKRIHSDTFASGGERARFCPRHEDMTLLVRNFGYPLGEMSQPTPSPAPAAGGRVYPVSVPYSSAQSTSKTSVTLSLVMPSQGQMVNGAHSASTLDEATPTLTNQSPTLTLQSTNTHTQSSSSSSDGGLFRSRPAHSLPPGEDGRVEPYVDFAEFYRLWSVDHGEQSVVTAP

p65 = p65 (UniProt Q04206)

Measured: binding

B1: KIZ (full length, co-transfected in HEK293T) (protein, UniProt Q2M2Z5 1-673)
chain: MSRTLASAVPLSSPDYYERLGQLQHGLRDSEKKRLDLEKKLYEYNQSDTCRVKLKYVKLKNYLKEICESEKKAHTRNQEYLKRFERVQAHVVHFTTNTEKLQKLKLEYETQIKKMLCSKDSLGLKEELTDEDREKVAVHEGINSGTAMSRGLYQPATIFMGRQMSAILSMRDFSTEHKSPQPTKNFSIPDPHSHRQTAQSSNVTDSCVVQTSNDTQCLNKSDNIDGKASLQIGEKMPVTASVLSEEEQTHCLEIGSNTRHGKSNLSEGKKSAELNSPLRERLSPENRTTDLKCDSSSGSEGEILTREHIEVEEKRASPPVSPIPVSEYCESENKWSQEKHSPWEGVSDHLAHREPKSQKPFRKMQEEEEESWSTSSDLTISISEDDLILESPEPQPNPGGKMEGEDGIEALKLIHAEQERVALSTEKNCILQTLSSPDSEKESSTNAPTREPGQTPDSDVPRAQVGQHVATLKEHDNSVKEEATALLRKALTEECGRRSAIHSSESSCSLPSILNDNSGIKEAKPAVWLNSVPTREQEVSSGCGDKSKKENVAADIPITETEAYQLLKKATLQDNTNQTENRFQKTDASVSHLSGLNIGSGAFETKTANKIASEASFSSSEGSPLSRHENKKKPVINLKSNALWDESDDSNSEIEAALRPRNHNTDDSDDFYD
no binding: IKKα | IKKβ | IRAK1 (overexpressed) | TAB1 | p65

— PMC9008698
